From US20230248799A1, “COMBINATION THERAPY OF SUBSTANCE-P FOR MOBILIZATION OF HEMATOPOIETIC STEM CELLS” (ELPHIS CELL THERAPEUTICS, priority 2020, published 2023)
At least one peptide structure holds a part that was inferred or is arguable (an end, a ring closure or a residue).

Tested on: hematopoietic stem cells in the blood
Assay: Mobilization of hematopoietic stem cells by SP alone (HSC-CFU colony count of blood cells)
Assay type: in vivo
Conditions: rabbits, intravenous (ear vein) twice, SP 6.7 µg/kg, G-CSF 10 µg/kg
Procedure: In order to confirm the effect of the drug administered in a normal physiological state alone, the effect of SP was tested using a normal group without wounds. This is because, in the case of injured animals, there are many other factors secreted by the wounds, and, thus, it is difficult to differentiate such factors from the effect of the administered drug, and especially because both SP and G-CSF are endogenous substances in the body.
To confirm the effect of SP alone on mobilization of hematopoietic stem cell, five (5) rabbits were prepared for each group. SP (6.7 µg/kg, sigma Aldrich) was administered twice via Ear vein, and the levels of hematopoietic stem cells in the blood of the same animals for 3 days were compared.
After injection of the drug, 5 ml of blood was collected once a day, put into a 15 ml tube (Falcon), and diluted twice by adding PBS (Welgene). To isolate blood cells, each of 5 ml Ficoll-Paque (Amersham) was placed in a new tube, and diluted blood was placed on top of it. The tubes were carefully handled so as not to mix the Ficoll layer and blood layer, and, after the blood layers were completely put in the tubes, centrifugation (813 g, Megafuge 8R, Thermo Scientific) was performed for 20 minutes. After centrifugation, the layers were separated, resulting in a total of four layers. The uppermost layer was plasma, the second layer was the blood cell layer excluding erythrocytes, the third layer was Ficoll, and the bottom layer was the erythrocyte layer. Among them, only the blood cell layer was separated and put into a tube, and PBS was then added thereto to centrifuge same. 5×10^6 blood cells were placed in a 35 mm plate and cultured in HSC-CFU media (Hematopoietic stem cells-colony forming unit media, purchased from Miltenyi). While the cells were cultured in the initial state for 2 weeks without exchanging the media, the number of colonies was observed every day and finally counted.

CSCC[C@H](NC(=O)[C@H](CC(C)C)NC(=O)CNC(=O)[C@H](Cc1ccccc1)NC(=O)[C@H](Cc1ccccc1)NC(=O)[C@H](CCC(N)=O)NC(=O)[C@H](CCC(N)=O)NC(=O)[C@@H]1CCCN1C(=O)[C@H](CCCCN)NC(=O)[C@@H]1CCCN1C(=O)[C@@H](N)CCCN=C(N)N)C(N)=O [SP, substance P]
level of hematopoietic stem cells in blood on the basis of 1X on day 0 (day 1): 3 X | level of hematopoietic stem cells in blood on the basis of 1X on day 0 (day 2): 7 X | level of hematopoietic stem cells in blood on the basis of 1X on day 0 (day 3): 6 X
